Experimental data reported in paper doi:10.1101/2022.09.28.509909.
No constants are given. Whether binding was seen depends on the method and setting. In cells and extracts the contact can be indirect. Some binding calls cover weakened binding; strength is not graded here. Where a sequence is shown, tags or fusion partners need not be part of it.

Sequences of proteins named here, by UniProt entry; tags and fusion partners are left off.
UniProt P46937: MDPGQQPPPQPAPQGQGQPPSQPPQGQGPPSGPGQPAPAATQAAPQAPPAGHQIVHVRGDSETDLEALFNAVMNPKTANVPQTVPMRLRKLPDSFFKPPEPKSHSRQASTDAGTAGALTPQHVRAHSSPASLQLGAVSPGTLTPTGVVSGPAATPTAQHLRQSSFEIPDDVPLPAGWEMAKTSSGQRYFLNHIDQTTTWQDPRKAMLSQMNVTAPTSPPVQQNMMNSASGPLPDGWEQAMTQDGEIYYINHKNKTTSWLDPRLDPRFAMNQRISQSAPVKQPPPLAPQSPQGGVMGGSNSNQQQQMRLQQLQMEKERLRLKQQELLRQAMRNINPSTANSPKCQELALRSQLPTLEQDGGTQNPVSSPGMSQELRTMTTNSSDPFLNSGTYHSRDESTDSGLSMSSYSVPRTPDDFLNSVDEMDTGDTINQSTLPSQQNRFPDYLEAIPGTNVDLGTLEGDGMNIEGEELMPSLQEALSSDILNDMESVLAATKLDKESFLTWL

Target: Flag-YAP1 (Yes-associated protein 1) (UniProt P46937)
Assay: co-IP

B1: Myc-TFCP2 (Transcription Factor CP2) (protein, UniProt Q12800 1-502)
chain: MAWALKLPLADEVIESGLVQDFDASLSGIGQELGAGAYSMSDVLALPIFKQEESSLPPDNENKILPFQYVLCAATSPAVKLHDETLTYLNQGQSYEIRMLDNRKLGELPEINGKLVKSIFRVVFHDRRLQYTEHQQLEGWRWNRPGDRILDIDIPMSVGIIDPRANPTQLNTVEFLWDPAKRTSVFIQVHCISTEFTMRKHGGEKGVPFRVQIDTFKENENGEYTEHLHSASCQIKVFKPKGADRKQKTDREKMEKRTPHEKEKYQPSYETTILTECSPWPEITYVNNSPSPGFNSSHSSFSLGEGNGSPNHQPEPPPPVTDNLLPTTTPQEAQQWLHRNRFSTFTRLFTNFSGADLLKLTRDDVIQICGPADGIRLFNALKGRMVRPRLTIYVCQESLQLREQQQQQQQQQQKHEDGDSNGTFFVYHAIYLEELTAVELTEKIAQLFSISPCQISQIYKQGPTGIHVLISDEMIQNFQEEACFILDTMKAETNDSYHIILK
For B1, the binding was “binds”.
